Assay results published in patent US4555403A, “Pharmacologically active peptides and medicaments containing the same” (priority 1979, dated 1985).
At least one peptide structure holds a part that was inferred or is arguable (an end, a ring closure or a residue). Some entries repeat one wording, which the source may state once for all of them. Non-standard residues stand in square brackets, D forms with d. Residues, ends and D or L forms follow the SMILES beside them.

Key:
[1] = system: guinea pig intestine preparation; experiment: opiate-like activity on electrically stimulated guinea pig intestine longitudinal muscle plexus myentericus preparation, naloxone-reversible; type: cell-based; settings: inhibition of electrically stimulated contractions, neutralized by naloxone
[2] = analgetic effect during systemic application (intravenous and subcutaneous injection); type: in vivo

| SMILES | opiate-like activity [1] | analgetic effect [2] |
| --- | --- | --- |
| COC(=O)CNC(=O)[C@@H]1CCCN1C(=O)[C@H](Cc1ccccc1)NC(=O)[C@H]1CCCN1C(=O)[C@@H](N)Cc1ccc(O)cc1 [D-Pro^2 β-casomorphin-5, Tyr-D-Pro-Phe-Pro-Gly-methylester] (H-Y[dP]FPG-OMe) | opiate active | analgetic effect could be obtained |
| COC(=O)CNC(=O)[C@@H]1CCCN1C(=O)[C@H](Cc1ccccc1)NC(=O)[C@@H](C)NC(=O)[C@@H](N)Cc1ccc(O)cc1 [D-Ala^2 -β-casomorphin-5, Tyr-D-Ala-Phe-Pro-Gly-methylester] (H-Y[dA]FPG-OMe) | opiate active | analgetic effect could be obtained |
| COC(=O)CNC(=O)[C@@H]1CCCN1C(=O)[C@H](Cc1ccccc1)NC(=O)[C@@H](CO)NC(=O)[C@@H](N)Cc1ccc(O)cc1 [D-Ser^2 -β-casomorphin-5, Tyr-D-Ser-Phe-Pro-Gly-methylester] (H-Y[dS]FPG-OMe) | opiate active | analgetic effect could be obtained |
| COC(=O)CNC(=O)[C@@H]1CCCN1C(=O)[C@H](Cc1ccccc1)NC(=O)[C@@H](CCCNC(=N)N)NC(=O)[C@@H](N)Cc1ccc(O)cc1 [D-Arg^2 -β-casomorphin-5, Tyr-D-Arg-Phe-Pro-Gly-methylester] (H-Y[dR]FPG-OMe) | opiate active | analgetic effect could be obtained |
| COC(=O)CNC(=O)[C@@H]1CCCN1C(=O)[C@H](Cc1ccccc1)NC(=O)[C@@H](CCSC)NC(=O)[C@@H](N)Cc1ccc(O)cc1 [D-Met^2 -β-casomorphin-5, Tyr-D-Met-Phe-Pro-Gly-methylester] (H-Y[dM]FPG-OMe) | opiate active | analgetic effect could be obtained |
